Some peptides are written in HELM: one residue between dots, names in brackets for other building blocks, links after the first $. [ ]: non-standard residue; d: D form. The star is where a group is joined. Decanoyl = CCCCCCCCCC(=O)*; Ac6c = NC1(C(=O)O)CCCCC1; Orn = NCCC[C@H](N)C(=O)O; Hexanoyl = CCCCCC(=O)*

A short description of the first series: general procedure: Fmoc solid-phase peptide synthesis; Pre-loaded Fmoc-Gln(Trt)-Wang resin (0.59 mmole/g; Novabiochem); Rink amide MBHA resin for amides; HBTU/DIPEA. As to conditions: whole synthesis.
The substance “[Ac-A6c^7, Orn^31(N-C(O)-(CH2)12-CH3)]hGIP(7-42)-OH” displayed an isolated mass of 3 mg.
For [Ac-A6c^7, Cys(Hsu)^31]hGIP(7-42)-OH, the isolated mass was 28.1 mg.

The same series, now with this note: whole synthesis, analytical HPLC, 250×4.6 mm C18 column (Phenomenex), 2-80% acetonitrile (0.1% TFA) over 30 minutes, scale of the general procedure 0.1 mmole.
“[A6c^7, Orn^34(N-C(O)-(CH2)8-CH3)]hGIP(7-42)-OH”: the “final HPLC purity” value amounted to 99.90%.
Same read-out and setting: as for (4Hppa^2, A6c^14)hGIP(2-42)-OH, the figure is 99.90%; as for [Ac-A6c^7, Cys(Psu)^38]hGIP(7-42)-OH, 99.90%; as for “H-[Ac6c]SDYSIAMDKIHQQDFVNWLLAQK[Orn](Hexanoyl)KKNDWKHNITQ-OH”, 99.90%.
Turning to “Ac-[Ac6c]SDYSIAMDKIHQQDFVNWLLAQK[Orn](Hexanoyl)KKNDWKHNITQ-OH”, the “final HPLC purity” value is listed as 96.20%.
Still for that read-out and setting: in the case of (Ac-A6c^7, Cys(Psu)^31]hGIP(7-34)-NH2 it was 99.90%.
On the same count and under the same terms, as for “[Ac-Phe^6, A6c^7, Cys(Psu)^31]hGIP(6-42)-OH”, the figure is 96.40%.
On the same count and under the same terms, as for (4Hppa^2, 4Hyp^3, A6c^7)hGIP(2-42)-OH, the figure is 99.90%.
[Ac-A6c^7, Cys(Psu)^36]hGIP(7-42)-OH: the “final HPLC purity” value is on record as 99.90%.
Same read-out and setting: as for “[Aib^2, A5c^11, Nle^14, Lys^43(N-C(O)-(CH2)10-CH3)]hGIP(2-43)-OH”, the figure is 99.9%; as for (Ac-A6c^7, Gln^43)hGIP(7-43)-OH, 99.90%; as for “Ac-[Ac6c]SDYSIAMDKIHQQDFVNWLLAQKGKK[Orn](Decanoyl)DWKHNITQ-OH”, 95.50%.
Same read-out and setting: as for [Ac-A6c^7, Cys(Psu)^33]hGIP(7-42)-OH, the figure is 99.90%; as for [Ac-Asp^9, Cys(Psu)^33]hGIP(9-42)-OH, 99.90%; as for “Ac-[Ac6c]SDYSIAMDKIHQQDFVNWLLAQK[Orn](Decanoyl)KKNDWKHNITQ-OH”, 96.70%.
As to “H-SDYSIAMDKIHQQDFVNWLLAQK[Orn](Decanoyl)KKNDWKHNITQ-OH”, the “final HPLC purity” value is 99.90%.
The same measure, in the same setting: as for “H-[Ac6c]SDYSIAMDKIHQQDFVNWLLAQK[Orn](Decanoyl)KKNDWKHNITQ-OH”, the figure is 99.90%; as for [Ac-A6c^7, Cys(Psu)^32]hGIP(7-42)-OH, 99.90%; as for “Hexanoyl-[Ac6c]SDYSIAMDKIHQQDFVNWLLAQK[Orn](Hexanoyl)KKNDWKHNITQ-OH”, 95.70%.
Same read-out and setting: as for (A6c^7, Nle^14)hGIP(6-30)-NH2, the figure is 99.90%.
Same read-out and setting: in the case of [Ac-A6c^7, Cys(Psu)^34]hGIP(7-42)-OH it was 99.90%.
On to “[Ac-A6c^7, Orn^31(N-C(O)-(CH2)12-CH3)]hGIP(7-42)-OH”, for which the “crude HPLC purity” value was 37% and the “final HPLC purity” value came to 95.20%.
“PEPTIDE1{[ac].[A6c].S.D.Y.S.I.A.M.D.K.I.H.Q.Q.D.F.V.N.W.L.L.A.Q.K.G.K.K.N.D.W.K.H.N.I.T.Q}$$$$V2.0”: the “final HPLC purity” value is given as 96.70%.
On the same count and under the same terms, as for [A6c^7, Cys(Psu)^31]hGIP(6-42)-OH, the figure is 95.10%; as for [A6c^7, Cys(Hsu)^31]hGIP(7-42)-OH, 95.80%.
Still for that read-out and setting: as for [Ac-A6c^7, Cys(Psu)^35]hGIP(7-42)-OH, the figure is 99.90%; as for (4Hppa^2, Aib^13)hGIP(2-42)-OH), 99.90%.
Same read-out and setting: in the case of (Ac-4Hyp^3, A6c^7)hGIP(3-42)-OH it was 99.90%; in that of “[CH3-(CH2)4-C(O)-Ser^8, Cys(Psu)^31]hGIP(8-42)-OH”, 96.40%; in that of “Decanoyl-[Ac6c]SDYSIAMDKIHQQDFVNWLLAQK[Orn](Decanoyl)KKNDWKHNITQ-OH”, 95.00%.
As for [Chc-Ser^8, Cys(Psu)^31]hGIP(8-42)-OH, the “final HPLC purity” value is recorded as 96.90%.
With (4Hppa^2, Pro^3, Nle^14)hGIP(2-42)-OH, the “final HPLC purity” value was found to be 99.90%.
The same measure, in the same setting: in the case of “[CH3-(CH2)8-C(O)-A6c^7, Orn^34(N-C(O)-(CH2)8-CH3)]hGIP(7-42)-OH” it was 95.30%; in that of (Ac-A6c^7, 2Nal^31)hGIP(7-42)-OH, 99.10%.
Still for that read-out and setting: in the case of (Ac-A6c^7, D-2Nal^31)hGIP(7-42)-OH it was 99.90%; in that of (4Hppa^2, A6c^11)hGIP(2-42)-OH, 99.90%; in that of (Aib^11, Nle^14)hGIP(6-30)-NH2, 97.20%.
The same measure, in the same setting: in the case of (A5c^7, Nle^14)hGIP(6-30)-NH2 it was 96.83%; in that of (Ac-Phe^6, A6c^7)hGIP(6-30)-NH2, 99.90%.
With [Ac-A6c^7, Cys(Psu)^37]hGIP(7-42)-OH, the “final HPLC purity” value is listed as 98.40%.
Same read-out and setting: as for [Ac-A6c^7, Cys(Psu)^31]hGIP(7-42)-OH, the figure is 99.90%.
Still for that read-out and setting: as for [Ac-A6c^7, Cys(Psu)^31]hGIP(7-31)-NH2, the figure is 96.40%.
Still for that read-out and setting: as for [A6c^7, Cys(Psu)^31]hGIP(6-31)-NH2, the figure is 98.20%; as for “[Ac-Phe^6, A6c^7, Cys(Psu)^31]hGIP(6-31)-NH2”, 96.30%; as for [Ac-A6c^7, Cys(Psu)^39]hGIP(7-42)-OH, 99.90%.

The series is the same for the next values; noted with them: whole synthesis, analytical HPLC, 250×4.6 mm C18 column (Phenomenex), 2-80% acetonitrile (0.1% TFA) over 30 minutes, scale of the general procedure 0.1 mmole; run 1.
As to [Ac-A6c^7, Cys(Psu)^40]hGIP(7-42)-OH, the “final HPLC purity” value turned out to be 95.2%.
On the same count and under the same terms, as for [Ac-A6c^7, Cys(Hsu)^31]hGIP(7-42)-OH, the figure is 95.4%.

Still in this series, the particulars now being: whole synthesis, analytical HPLC, 250×4.6 mm C18 column (Phenomenex), 2-80% acetonitrile (0.1% TFA) over 30 minutes, scale of the general procedure 0.1 mmole; run 2.
As to [Ac-A6c^7, Cys(Psu)^40]hGIP(7-42)-OH, the “final HPLC purity” value was found to be 95.20%.
[Ac-A6c^7, Cys(Hsu)^31]hGIP(7-42)-OH: the “final HPLC purity” value amounted to 95.40%.

The series is the same for the next values; noted with them: whole synthesis, scale of the general procedure 0.1 mmole.
“[Ac-A6c^7, Orn^31(N-C(O)-(CH2)12-CH3)]hGIP(7-42)-OH” showed an isolated yield of 0.6%.
Still for that read-out and setting: as for [Ac-A6c^7, Cys(Psu)^40]hGIP(7-42)-OH, the figure is 1%.
With [Ac-A6c^7, Cys(Hsu)^31]hGIP(7-42)-OH, the isolated yield was 6.1%.

Source of the values: US8450266B2 (Ipsen Pharma S.A.S., priority 2008, dated 2013).
